Laboratory results as given in patent US20230365648A1.
No constants are given. Whether binding was seen depends on the method and setting. Some entries that bind do so weakly or less than the wild type. Where a sequence is shown, tags or fusion partners need not be part of it.

The chains behind the UniProt entries cited, without tags or fusion partners. Residues count along the entry.
UniProt Q08722, residues 19-323: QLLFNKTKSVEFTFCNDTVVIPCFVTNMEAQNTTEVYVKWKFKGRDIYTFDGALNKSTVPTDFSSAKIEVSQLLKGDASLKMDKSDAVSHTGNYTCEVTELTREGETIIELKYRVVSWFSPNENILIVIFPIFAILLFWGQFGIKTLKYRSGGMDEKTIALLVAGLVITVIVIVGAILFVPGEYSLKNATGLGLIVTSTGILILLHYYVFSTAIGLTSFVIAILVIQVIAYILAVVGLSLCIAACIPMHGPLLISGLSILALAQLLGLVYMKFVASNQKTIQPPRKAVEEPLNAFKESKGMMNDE

Assays:
[1] = target: Cyno monkey CD47 (Cyno monkey); test: BLI (Octet R8), construct captured on anti-human Fc sensor, CD47 in solution
[2] = target: CD47 on human CD45 negative red blood cells (human) (UniProt Q08722); test: flow cytometry on human whole blood, CD45 negative gate (red blood cells), detection with AF647 anti-human IgG4

binding [1]: binds | binding [2]: binds
B1: Construct 67 (SIRPα fusion polypeptide of SEQ ID NO: 10, SIRPα domain of SEQ ID NO: 2 and IgG4 Fc domain with a YTE mutation) (Fc fusion)
chain: EEELQIIQPDKSVLVAAGETATLRCTITSLFPVGPIQWFRGAGPGRVLIYNQRQGPFPRVTTVSDTTKRNNMDFSIRIGNITPADAGTYYCIKFRKGSPDDVEFKSGAGTELSVRAKPSAAAPPCPPCPAPEFLGGPSVFLFPPKPKDTLYITREPEVTCVVVDVSQEDPEVQFNWYVDGVEVHNAKTKPREEQFNSTYRVVSVLTVLHQDWLNGKEYKCKVSNKGLPSSIEKTISKAKGQPREPQVYTLPPSQEEMTKNQVSLTCLVKGFYPSDIAVEWESNGQPENNYKTTPPVLDSDGSFFLYSRLTVDKSRWQEGNVFSCSVMHEALHNHYTQKSLSLSLGK
